Percent effect of library compounds

Protein sequences, listed by entry. Tags and fused reporters are not part of them.
UniProt P9WPC5, whole entry: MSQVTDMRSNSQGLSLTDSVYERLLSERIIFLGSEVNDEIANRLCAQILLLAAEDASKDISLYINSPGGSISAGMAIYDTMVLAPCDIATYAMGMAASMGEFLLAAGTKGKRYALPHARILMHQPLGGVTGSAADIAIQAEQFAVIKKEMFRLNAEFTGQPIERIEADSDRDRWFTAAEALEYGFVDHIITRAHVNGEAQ
UniProt P9WPC3, whole entry partner: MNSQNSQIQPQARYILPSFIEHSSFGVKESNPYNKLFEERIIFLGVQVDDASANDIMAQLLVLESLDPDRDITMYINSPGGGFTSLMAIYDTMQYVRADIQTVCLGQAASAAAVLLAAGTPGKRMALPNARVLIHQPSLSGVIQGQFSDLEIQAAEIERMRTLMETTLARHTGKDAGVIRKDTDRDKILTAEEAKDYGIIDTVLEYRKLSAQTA
UniProt P9WNZ1, whole entry: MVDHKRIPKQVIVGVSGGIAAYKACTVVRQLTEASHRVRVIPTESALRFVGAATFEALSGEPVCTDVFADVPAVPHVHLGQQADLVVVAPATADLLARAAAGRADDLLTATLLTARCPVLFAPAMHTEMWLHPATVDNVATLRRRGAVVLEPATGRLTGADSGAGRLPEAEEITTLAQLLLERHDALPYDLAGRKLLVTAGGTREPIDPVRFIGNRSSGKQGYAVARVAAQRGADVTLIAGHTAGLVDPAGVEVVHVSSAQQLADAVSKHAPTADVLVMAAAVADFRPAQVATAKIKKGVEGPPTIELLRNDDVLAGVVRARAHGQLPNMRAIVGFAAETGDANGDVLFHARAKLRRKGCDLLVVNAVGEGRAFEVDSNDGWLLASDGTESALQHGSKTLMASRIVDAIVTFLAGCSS

ClpP1P2: 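Protease assay of ClpP1P2, read by the AMC dye that it sets free. Target: ClpP1P2, Mycobacterium tuberculosis (UniProt P9WPC5 and UniProt P9WPC3). Concentration: 50 µM. Direction is inferred from only a few compounds that gave an IC50; most scored high, so higher reads as stronger inhibition. Most other retested compounds had strongly negative values. Of about 69,000 compounds tested this way, about 10 (0.015%) reached 50% or more in at least one test.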
CoaBC: 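Enzyme assay of CoaBC with a phosphate dye (Biomol Green) read at 650 nm. Target: Coenzyme A biosynthesis protein CoaBC, Mycobacterium tuberculosis (UniProt P9WNZ1). Tested at 30 µM. Higher reads as stronger inhibition, judged from the few compounds that gave an IC50. Most strong results did not repeat in a second test. Of about 67,000 compounds tested this way, about 40 (0.06%) reached 50% or more in at least one test.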

The filed quantity is “Percent Effect” (%). The record does not define 0% and 100%; most values in the screen are far below 50% and negative numbers occur (in some assays of this library far below -100). The compounds are a random part of those screened. Two or more numbers in one place are separate tests of the same structure; such repeats can differ widely.

| # | SMILES | ClpP1P2 | CoaBC |
|---|---|---|---|
| 1 | `Cc1nn(C)c(C)c1C1COCCN1c1ncncc1Br` (stereo not shown) | -4.948% | 1.24% |
| 2 | `Clc1snnc1CN1CCCC1Cn1cncn1` (stereo not shown) | -4.192% | -2.887% |
| 3 | `CN(C)C(=O)N1CC(=O)NCC12CCN(C(=O)c1ccco1)C2` (stereo not shown) | -6.54% | 0% |
| 4 | `CN(C)Cc1cc(=O)n2c(n1)CN(Cc1ccco1)CCC2` | 2.457% | 0.6148% |
| 5 | `Cc1nn(CCC(=O)N(C)Cc2c(Cl)cnn2C)cc1Br` | -4.872% | -22.14% |
| 6 | `c1ccc(COC[C@@H]2CC[C@H]3[C@H](CCN3c3ncccn3)O2)nc1` | 0.02942% | 3.09% |
| 7 | `COc1ccc(N2CCN(Cc3nc(CSC)no3)CC2=O)cc1` | -15.03% | 13.93% |
| 8 | `CN(Cc1cc(Br)cs1)Cc1nnsc1Cl` | -5.181% | 9.685% |
| 9 | `Cc1cc(CCC(=O)N(C)C)nc(C2CCCCN2)n1` (stereo not shown) | 5.913% | 2.179% |
| 10 | `CCN(CC)c1ccc(NS(=O)(=O)c2cnn(C(C)C)c2)cn1` | -106.8% | 3.758% |
| 11 | `CC(C)CNC(=O)[C@H]1CCS(=O)(=O)[C@@H]2CN(Cc3cccc(Cl)c3)C[C@H]12` | -10.19% | -10.97% |
| 12 | `Cc1nc(CN2CCO[C@@H]3CN(C(=O)CC4CC4)C[C@@H]3C2)cs1` | 1.264% | 5.462% |
| 13 | `O=C(c1ccccc1N1CCOCC1)N1CCCC(n2ccnc2)C1` (stereo not shown) | -25.83% | 8.184% |
| 14 | `OCC1(CNC2CCc3cc4c(cc32)OCCO4)CC1` (stereo not shown) | 4.455% | -4.657% |
| 15 | `CC(C)N(C)Cc1noc2c1CN(C(=O)c1ccsc1)CC2` | 1.906% | 6.762% |
| 16 | `Cc1cc(C(=O)N2CCCC(n3cncn3)C2)c(C)n1CC1CC1` (stereo not shown) | -33.59% | -3.485% |
| 17 | `CCn1nc(C)cc1C(=O)Nc1cc(F)ccc1OCC1CCCO1` (stereo not shown) | -6.256% | -1.538% |
| 18 | `CCC(CC)NC(=O)c1ccc2nnc(C3CCN(S(C)(=O)=O)C3)n2c1` (stereo not shown) | 6.341% | 4.459% |
| 19 | `O=C(NCCCn1nc2ccccn2c1=O)NCc1ccccc1` | -33.18% | 5.239% |
| 20 | `CC(C)CS(=O)(=O)CC(=O)NC(C)c1nnc2n1CCC2` (stereo not shown) | -4.472% | 0.4779% |
| 21 | `COc1ccc2cc(CN(C)CCc3cn[nH]c3)c(=O)[nH]c2c1` | -69.29% | 0.4274% |
| 22 | `Cc1cc(CN2CCN(C(=O)NC(C)Cn3ccnc3)CC2)on1` (stereo not shown) | 9.486% | 0.1267% |
| 23 | `CCc1cnc(CN(C)C(C)C(=O)N2CCc3ccccc3C2)s1` (stereo not shown) | -29.26% | 0.6329% |
| 24 | `COc1ccccc1C(NC(=O)C1CCCC1)c1noc(C)n1` (stereo not shown) | 4.19% | 6.855% |
| 25 | `O=C(CCn1cncn1)NCC1CCOC1` (stereo not shown) | 3.691% | 13.2% |
| 26 | `O=C(NCCC(O)c1ccccc1)c1ccco1` (stereo not shown) | -2.837% | 0.1156% |
| 27 | `CC(C)NC(=O)N1CCC(n2ccc(C(F)(F)F)n2)CC1` | -0.1146% | 0.6397% |
| 28 | `Cc1ccc(NC(=O)CNc2ccccc2C(N)=O)c(C)c1` | -17.84% | 2.551% |
| 29 | `O=C(NCC(F)F)c1ccc(S(=O)(=O)N2CCCC(O)C2)cc1` (stereo not shown) | -5.941% | 8.705% |
| 30 | `O=C(NC1CCN(c2cccc(OC(F)(F)F)c2)C1=O)C1CCC1` (stereo not shown) | 1.818% | 0.4132% |
| 31 | `Cc1ncnc(NC(CC(C)(C)C)c2cccnc2)c1C` (stereo not shown) | -18.25% | 0.6211% |
| 32 | `Cc1ccc(C)c(CC(=O)NC2CCCS(=O)(=O)C2)c1` (stereo not shown) | 4.459% | -3.808% |
| 33 | `O=C(c1ccco1)N1C[C@@H]2CCN(c3cccnc3)C[C@@H]2C1` | 8.85% | 1.777% |
| 34 | `NC(CNS(=O)(=O)Cc1cccc2cccnc12)c1ccccc1` (stereo not shown) | -7.604% | -0.578% |
| 35 | `C[C@@H]1CN(CCC(=O)N(C)Cc2ccccc2)C[C@@]1(O)C1CCC1` | -30.01% | 2.857% |
| 36 | `CCn1nc(C)c(CNC(=O)NCC(C)(O)c2ccco2)c1C` (stereo not shown) | -15.76% | 1.582% |
| 37 | `O=C1NC2(CCN(CCc3ccccc3)CC2)CC1c1ccccc1` (stereo not shown) | -4.282% | 14.4% |
| 38 | `CC(CC#N)n1ccc(C(F)(F)F)n1` (stereo not shown) | 5.451% | 2.086% |
| 39 | `CN1CCC(n2nc(Cc3cccs3)nc2-c2ccncc2)CC1` | 0.9873% | 0.9828% |
| 40 | `O=S(=O)(NCCc1c[nH]c2ccc(F)cc12)C1CCOCC1` | -3.843% | -11.29% |
| 41 | `CS(=O)(=O)N1CCC(C(=O)NCCCn2cc(Cl)cn2)CC1` | -8.998% | -35.94% |
| 42 | `CC(=O)c1cc(Br)cc(F)c1OCC(=O)NC1CC1` | 1.001% | 1.157% |
| 43 | `Cc1cc(C)nc(NCc2nnc3n2CCCCC3)n1` | 0.4237% | 3.846% |
| 44 | `CC(C)NC(=O)CNC(C)COc1ccccc1` (stereo not shown) | -5.95% | 1.961% |
| 45 | `CC(C1CCN(Cc2ccc(N(C)C)nc2)CC1)N(C)C` (stereo not shown) | 1.89% | 6.367% |
| 46 | `Cc1cc(C(=O)N2CCn3cc(CN4CCCC4)nc3C2)no1` | -1.679% | 5.5% |
| 47 | `CNc1ccc(CC2CCCN(Cc3c[nH]cn3)C2)nn1` (stereo not shown) | -1.977% | 2.138% |
| 48 | `CC(C(=O)NC1CC1)N1CCN(Cc2ccn(C)c(=O)c2)CC1` (stereo not shown) | 8.752% | 3.421% |
| 49 | `CCc1nc(C)c(CC(=O)N2CCC3(CC2)OCCCC3OC)c(=O)[nH]1` (stereo not shown) | 2.408% | -3.617% |
| 50 | `Cn1cnc2ccc(NC(=O)CC3CCN(C4CCCCC4)CC3)cc21` | 10.29% | 4.993% |
| 51 | `O=S(=O)(c1ccccc1)N1CCC2(CCCN2Cc2ccc(Cl)cc2)C1` (stereo not shown) | 3.934% | 6.25% |
| 52 | `COCCCN1C(=O)CC[C@H]2CN(Cc3ccc4nonc4c3)CC[C@H]21` | 0.9548% | 0.8464% |
| 53 | `COCCCNC(=O)CN(C)C(=O)c1ccc(OC)cc1O` | -17.62% | -1.37% |
| 54 | `COc1ccc(C(O)CN2CC(n3nc(C)cc3C)C2)cc1` (stereo not shown) | -12.57% | 22.05% & 18.04% |
| 55 | `c1cn(-c2cncc(C3CCNCC3)n2)cn1` | -5.121% | 1.703% |
| 56 | `O=C(N1CCCC1)N1CC[C@H]2OCC[C@@]2(COc2ncccc2F)C1` | -2.704% | 0.9346% |
| 57 | `CC(=O)NCc1nccnc1C1CCN(C(=O)c2cc[nH]n2)CC1` | -12.78% | 4.276% |
| 58 | `Cc1cc(NC(=O)CN2CCn3c(nnc3C3CC3)C2)on1` | -30.04% | 2.915% |
| 59 | `COc1ccc(-c2noc(Cn3cc4c(n3)CCC4)n2)c(OC)c1OC` | 7.637% | 7.438% |
| 60 | `O=C1CN(Cc2ccc3ccccc3n2)CCN1C1CCCC1` | -56.36% | 9.026% |
| 61 | `CCOc1ccc(CN2CC[C@H]3CC[C@@H](C2)N3)cc1CO` | 14.33% | 9.185% |
| 62 | `NC(=O)CCNC(=O)NCC1(c2ccccc2Cl)CCC1` | -4.495% | -3.6% |
| 63 | `COCC1(CNC(=O)[C@@]23CNC[C@@H]2CN(C2CCCC2)C3)CC1` | -1.583% | -9.457% |
| 64 | `Cc1nnc(C(C)N2CCN(Cc3ccc4c(c3)OCO4)CC2)o1` (stereo not shown) | -2.2% | -1.068% |
| 65 | `CC(C)c1nc2c(n1C)CCN(Cc1cccc(OCC(N)=O)c1)C2` | -5.249% | 3.571% |
| 66 | `O=C(CN1CCCc2c(F)cc(Br)cc21)N1CCCC1` | -11.7% | -3.676% |
| 67 | `COc1c(C)cnc(CN2CCOC(CNc3cccnn3)C2)c1C` (stereo not shown) | -23.21% | -2.273% |
| 68 | `CCn1nnc(NCc2cc(Cl)cc(Cl)c2OC)n1` | 5.05% | 4.126% |
| 69 | `Cc1cc(C(=O)N2CCN(Cc3ccco3)C(CCO)C2)cc(=O)[nH]1` (stereo not shown) | -9.486% | 3.371% |
| 70 | `Fc1ccccc1-c1noc2c1CN(CC1CC1)CC2` | -9.329% | 4.904% |
| 71 | `O=C(c1ccco1)N1CCOC2(COCCN(c3ncccn3)C2)C1` (stereo not shown) | -3.168% | 4.821% |
| 72 | `Cc1cnccc1CCNC(=O)Nc1cnc(N(C)C)nc1` | -26.54% | -2.278% |
| 73 | `CN(CCC(N)=O)Cc1cc(Br)cs1` | -10.45% | 1.145% |
| 74 | `N#CCCn1nc(C(F)(F)F)c2c1CCC2` | -3.245% | 1.35% |
| 75 | `Cc1noc(C)c1CS(=O)(=O)CC(=O)N(C)Cc1cccc(F)c1` | 8.675% | -4.914% |
| 76 | `NCC(=O)N1CCCCC1c1ccc(F)cc1` (stereo not shown) | -5.496% | -5.976% |
| 77 | `O=C1CO[C@H]2CN(S(=O)(=O)c3ccccc3)C[C@H]2N1CC1CCCCC1` | -10.62% | 8.352% |

5 of the entries, repeated:

* O=C(NC1CCN(c2cccc(OC(F)(F)F)c2)C1=O)C1CCC1 (stereo not shown) | ClpP1P2: 1.818%; CoaBC: 0.4132%
* Fc1ccccc1-c1noc2c1CN(CC1CC1)CC2 | ClpP1P2: -9.329%; CoaBC: 4.904%
* O=C(NCCCn1nc2ccccn2c1=O)NCc1ccccc1 | ClpP1P2: -33.18%; CoaBC: 5.239%
* COCCCN1C(=O)CC[C@H]2CN(Cc3ccc4nonc4c3)CC[C@H]21 | ClpP1P2: 0.9548%; CoaBC: 0.8464%
* CNc1ccc(CC2CCCN(Cc3c[nH]cn3)C2)nn1 (stereo not shown) | ClpP1P2: -1.977%; CoaBC: 2.138%

Source: ChEMBL document CHEMBL3988442, “University of Dundee, Small-Polar-MMV Screening Library” (2021).